Reference: the supplement of paper PMC12823440, “Inhibitors supercharge kinase turnover through native proteolytic circuits” (Nature, 2025)
Counter-ions that a name gives are not always drawn. The list shows a part of the results. The calls rarely recur for the same compound in another form.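 Kinases were expressed as nanoluciferase fusions in K562 cells and luminescence was read every 4 h between 2 and 18 h as percent of control, DMSO set to 100% and a positive control to 0%. A time point counts as decreased when the signal drops significantly (2 sigma). The hit call is the authors' own, does not follow from the count of time points alone, and its rule is not shown.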

Protein sequences, listed by entry. Tags and fused reporters are not part of them. Lines headed by an entry give the natural chain unless they say otherwise; changes in a name come on top.
UniProt P28482, whole entry: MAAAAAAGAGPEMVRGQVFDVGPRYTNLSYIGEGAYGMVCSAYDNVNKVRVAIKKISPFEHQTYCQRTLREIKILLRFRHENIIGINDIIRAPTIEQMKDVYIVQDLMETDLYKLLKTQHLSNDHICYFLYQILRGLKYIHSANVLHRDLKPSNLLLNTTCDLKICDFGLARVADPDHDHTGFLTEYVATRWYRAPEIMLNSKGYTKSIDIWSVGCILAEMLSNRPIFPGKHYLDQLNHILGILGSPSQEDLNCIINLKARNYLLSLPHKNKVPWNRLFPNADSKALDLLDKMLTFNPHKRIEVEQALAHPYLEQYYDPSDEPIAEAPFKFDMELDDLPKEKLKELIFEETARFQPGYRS
UniProt P31152, whole entry: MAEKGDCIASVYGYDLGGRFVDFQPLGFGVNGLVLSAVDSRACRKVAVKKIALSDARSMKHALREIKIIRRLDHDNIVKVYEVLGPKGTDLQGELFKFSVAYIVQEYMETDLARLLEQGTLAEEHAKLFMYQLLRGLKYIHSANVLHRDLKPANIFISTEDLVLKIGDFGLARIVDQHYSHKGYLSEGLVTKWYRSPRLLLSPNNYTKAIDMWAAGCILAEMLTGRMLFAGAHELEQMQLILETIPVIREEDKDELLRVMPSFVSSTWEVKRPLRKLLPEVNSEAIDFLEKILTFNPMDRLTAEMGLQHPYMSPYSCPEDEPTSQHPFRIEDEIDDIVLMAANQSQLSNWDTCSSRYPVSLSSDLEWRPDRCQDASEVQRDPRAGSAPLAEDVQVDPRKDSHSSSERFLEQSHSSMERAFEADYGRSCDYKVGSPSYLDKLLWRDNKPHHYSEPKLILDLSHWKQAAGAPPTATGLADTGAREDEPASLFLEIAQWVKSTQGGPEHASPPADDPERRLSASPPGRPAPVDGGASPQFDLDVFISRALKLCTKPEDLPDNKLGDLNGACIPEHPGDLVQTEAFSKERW
UniProt P49137, whole entry, looked up: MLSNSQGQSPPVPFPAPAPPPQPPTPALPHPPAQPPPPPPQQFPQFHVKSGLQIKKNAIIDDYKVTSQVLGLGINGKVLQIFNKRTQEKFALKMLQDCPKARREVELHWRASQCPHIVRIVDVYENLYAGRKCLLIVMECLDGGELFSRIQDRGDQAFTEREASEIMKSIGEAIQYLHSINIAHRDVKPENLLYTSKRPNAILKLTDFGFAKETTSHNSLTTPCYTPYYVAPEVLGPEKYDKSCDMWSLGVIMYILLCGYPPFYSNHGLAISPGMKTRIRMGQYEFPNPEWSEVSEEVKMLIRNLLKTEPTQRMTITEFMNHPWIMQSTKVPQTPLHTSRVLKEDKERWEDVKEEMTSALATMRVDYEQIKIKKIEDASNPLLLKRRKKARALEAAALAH
UniProt Q9BUB5: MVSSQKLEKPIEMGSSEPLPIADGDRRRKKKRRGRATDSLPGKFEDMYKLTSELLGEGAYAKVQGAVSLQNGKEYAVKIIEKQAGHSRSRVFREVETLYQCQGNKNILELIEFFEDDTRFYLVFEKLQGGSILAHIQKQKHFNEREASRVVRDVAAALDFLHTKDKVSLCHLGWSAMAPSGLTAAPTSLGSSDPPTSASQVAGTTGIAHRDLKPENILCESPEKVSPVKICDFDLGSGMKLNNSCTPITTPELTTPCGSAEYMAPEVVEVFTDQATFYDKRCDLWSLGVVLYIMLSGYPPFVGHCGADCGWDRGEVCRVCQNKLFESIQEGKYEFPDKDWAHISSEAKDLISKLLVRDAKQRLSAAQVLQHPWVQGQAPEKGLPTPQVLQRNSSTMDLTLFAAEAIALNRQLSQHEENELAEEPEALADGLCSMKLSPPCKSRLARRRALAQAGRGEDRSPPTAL
UniProt Q16620, whole entry, looked up: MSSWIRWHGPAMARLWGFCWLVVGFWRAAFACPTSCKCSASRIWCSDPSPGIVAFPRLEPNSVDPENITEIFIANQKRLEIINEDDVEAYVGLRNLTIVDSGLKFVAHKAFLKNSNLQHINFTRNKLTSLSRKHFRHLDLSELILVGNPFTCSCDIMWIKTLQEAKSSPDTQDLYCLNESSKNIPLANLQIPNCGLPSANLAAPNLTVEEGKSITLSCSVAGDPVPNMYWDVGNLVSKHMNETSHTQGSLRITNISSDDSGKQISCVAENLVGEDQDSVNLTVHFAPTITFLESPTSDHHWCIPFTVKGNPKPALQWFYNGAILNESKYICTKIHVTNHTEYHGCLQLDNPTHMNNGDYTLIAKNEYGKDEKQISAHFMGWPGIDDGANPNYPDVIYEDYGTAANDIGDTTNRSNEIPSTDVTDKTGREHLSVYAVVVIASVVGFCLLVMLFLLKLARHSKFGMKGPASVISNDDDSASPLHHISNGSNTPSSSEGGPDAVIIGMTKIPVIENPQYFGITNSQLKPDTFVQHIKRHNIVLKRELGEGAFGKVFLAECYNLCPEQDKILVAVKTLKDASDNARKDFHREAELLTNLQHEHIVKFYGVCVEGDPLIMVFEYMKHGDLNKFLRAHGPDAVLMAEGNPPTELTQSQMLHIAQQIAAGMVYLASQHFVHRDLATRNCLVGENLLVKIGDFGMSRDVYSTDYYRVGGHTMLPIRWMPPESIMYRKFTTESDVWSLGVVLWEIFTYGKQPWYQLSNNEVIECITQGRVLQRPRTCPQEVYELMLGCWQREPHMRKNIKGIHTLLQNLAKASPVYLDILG
UniProt Q16288, whole entry, looked up: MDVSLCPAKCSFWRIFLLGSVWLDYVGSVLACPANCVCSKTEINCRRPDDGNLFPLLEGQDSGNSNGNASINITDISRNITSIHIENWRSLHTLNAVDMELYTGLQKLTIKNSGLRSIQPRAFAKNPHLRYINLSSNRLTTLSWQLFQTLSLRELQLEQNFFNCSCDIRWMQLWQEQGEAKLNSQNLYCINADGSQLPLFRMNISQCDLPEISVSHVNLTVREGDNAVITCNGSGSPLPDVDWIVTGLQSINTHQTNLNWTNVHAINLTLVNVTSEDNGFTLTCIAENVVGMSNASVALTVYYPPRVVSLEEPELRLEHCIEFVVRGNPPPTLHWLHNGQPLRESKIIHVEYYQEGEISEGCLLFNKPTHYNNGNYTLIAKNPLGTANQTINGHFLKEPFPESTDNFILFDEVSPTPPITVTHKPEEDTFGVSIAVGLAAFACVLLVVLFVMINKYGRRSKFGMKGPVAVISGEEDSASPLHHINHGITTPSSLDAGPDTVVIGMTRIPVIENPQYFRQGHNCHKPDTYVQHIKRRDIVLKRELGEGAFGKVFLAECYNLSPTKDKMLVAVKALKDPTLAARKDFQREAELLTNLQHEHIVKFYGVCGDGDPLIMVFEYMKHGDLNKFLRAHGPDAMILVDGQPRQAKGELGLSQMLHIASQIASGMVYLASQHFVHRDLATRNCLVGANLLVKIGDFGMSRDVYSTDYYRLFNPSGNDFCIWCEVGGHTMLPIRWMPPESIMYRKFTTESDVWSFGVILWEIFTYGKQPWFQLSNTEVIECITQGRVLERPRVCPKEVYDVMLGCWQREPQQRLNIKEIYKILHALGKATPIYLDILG
UniProt O96013: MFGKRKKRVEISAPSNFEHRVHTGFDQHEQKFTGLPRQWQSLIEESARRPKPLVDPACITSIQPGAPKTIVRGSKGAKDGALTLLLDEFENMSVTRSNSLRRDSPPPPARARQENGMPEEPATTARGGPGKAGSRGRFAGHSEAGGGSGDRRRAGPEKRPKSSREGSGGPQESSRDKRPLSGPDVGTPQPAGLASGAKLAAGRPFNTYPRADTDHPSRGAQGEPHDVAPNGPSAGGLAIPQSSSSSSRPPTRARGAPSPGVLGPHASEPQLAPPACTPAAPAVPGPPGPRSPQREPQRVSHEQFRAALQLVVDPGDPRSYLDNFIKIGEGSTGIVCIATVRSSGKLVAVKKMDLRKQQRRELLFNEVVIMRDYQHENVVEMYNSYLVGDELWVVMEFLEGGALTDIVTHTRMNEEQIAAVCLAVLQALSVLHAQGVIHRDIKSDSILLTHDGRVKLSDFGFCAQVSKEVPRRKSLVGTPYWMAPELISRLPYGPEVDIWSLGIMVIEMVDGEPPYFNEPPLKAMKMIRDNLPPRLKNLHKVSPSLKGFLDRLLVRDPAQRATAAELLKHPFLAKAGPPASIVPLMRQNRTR
UniProt Q96KB5: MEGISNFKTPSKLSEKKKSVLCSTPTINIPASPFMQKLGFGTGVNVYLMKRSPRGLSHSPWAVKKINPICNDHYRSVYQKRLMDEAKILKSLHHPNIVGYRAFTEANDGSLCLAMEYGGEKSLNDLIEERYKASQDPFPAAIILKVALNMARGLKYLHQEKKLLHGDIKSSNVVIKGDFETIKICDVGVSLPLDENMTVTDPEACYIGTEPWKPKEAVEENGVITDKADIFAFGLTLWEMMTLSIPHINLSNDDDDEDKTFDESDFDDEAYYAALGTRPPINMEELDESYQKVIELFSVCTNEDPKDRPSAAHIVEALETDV
UniProt P09619, whole entry: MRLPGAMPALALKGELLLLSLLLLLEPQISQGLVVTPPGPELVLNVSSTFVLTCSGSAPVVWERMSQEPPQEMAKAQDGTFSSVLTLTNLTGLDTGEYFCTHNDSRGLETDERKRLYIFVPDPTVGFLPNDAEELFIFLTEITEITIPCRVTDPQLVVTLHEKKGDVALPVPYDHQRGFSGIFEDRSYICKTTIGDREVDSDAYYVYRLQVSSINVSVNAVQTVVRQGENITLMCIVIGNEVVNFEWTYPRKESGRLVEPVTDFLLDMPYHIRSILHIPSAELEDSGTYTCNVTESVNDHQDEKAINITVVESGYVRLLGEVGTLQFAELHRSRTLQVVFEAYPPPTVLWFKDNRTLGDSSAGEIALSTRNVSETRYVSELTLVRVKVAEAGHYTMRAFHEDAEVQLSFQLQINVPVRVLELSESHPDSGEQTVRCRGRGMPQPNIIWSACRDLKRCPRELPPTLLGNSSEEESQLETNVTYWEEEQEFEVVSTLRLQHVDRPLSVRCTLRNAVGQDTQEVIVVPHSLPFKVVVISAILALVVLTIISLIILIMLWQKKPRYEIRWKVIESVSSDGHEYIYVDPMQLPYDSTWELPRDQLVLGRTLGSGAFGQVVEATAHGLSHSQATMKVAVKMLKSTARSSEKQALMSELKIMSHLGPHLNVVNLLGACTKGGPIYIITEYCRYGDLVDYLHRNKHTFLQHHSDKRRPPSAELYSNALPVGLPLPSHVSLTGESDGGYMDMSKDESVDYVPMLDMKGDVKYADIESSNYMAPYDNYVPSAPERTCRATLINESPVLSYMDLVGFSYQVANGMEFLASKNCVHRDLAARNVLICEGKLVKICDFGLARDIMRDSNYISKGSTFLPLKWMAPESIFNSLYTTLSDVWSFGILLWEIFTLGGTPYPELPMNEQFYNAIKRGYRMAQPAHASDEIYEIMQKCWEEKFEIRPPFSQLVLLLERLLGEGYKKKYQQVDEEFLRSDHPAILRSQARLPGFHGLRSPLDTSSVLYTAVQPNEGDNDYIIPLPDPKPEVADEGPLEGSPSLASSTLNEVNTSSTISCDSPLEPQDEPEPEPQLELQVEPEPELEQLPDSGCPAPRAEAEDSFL
UniProt Q15118, whole entry, looked up: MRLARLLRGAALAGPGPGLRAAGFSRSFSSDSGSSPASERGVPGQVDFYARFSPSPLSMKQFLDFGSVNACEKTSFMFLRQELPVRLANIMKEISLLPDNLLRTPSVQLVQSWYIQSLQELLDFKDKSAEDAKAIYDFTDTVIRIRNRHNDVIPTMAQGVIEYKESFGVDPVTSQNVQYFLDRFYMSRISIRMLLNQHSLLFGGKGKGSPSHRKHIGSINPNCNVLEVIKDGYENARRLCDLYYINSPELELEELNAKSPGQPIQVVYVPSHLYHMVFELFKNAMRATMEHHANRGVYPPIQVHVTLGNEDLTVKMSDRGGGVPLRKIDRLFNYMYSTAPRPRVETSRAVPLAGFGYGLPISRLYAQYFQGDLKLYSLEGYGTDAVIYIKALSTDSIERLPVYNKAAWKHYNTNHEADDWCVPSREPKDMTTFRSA

Columns and labels:
Test in all cases: kinase-Nluc reporter destabilization hit call (1 = scored as downregulated) (binary); higher = compound decreases kinase abundance
Conditions in all cases: K562; 2-18 h
MAPK1 = MAPK1 (UniProt P28482)
MAPK4 = MAPK4 (UniProt P31152)
MAPKAPK2 = MAPKAPK2 (UniProt P49137)
MKNK1 = MKNK1 (UniProt Q9BUB5)
NTRK2 = NTRK2 (UniProt Q16620)
NTRK3 = NTRK3 (UniProt Q16288)
PAK4 = PAK4 (UniProt O96013)
PBK = PBK (UniProt Q96KB5)
PDGFRB = PDGFRB (UniProt P09619)
PDK1 = PDK1 (UniProt Q15118)

Measured: kinase-Nluc reporter destabilization hit call

O=C(Nc1cccc(-c2nc(-c3ccc(NC(=O)c4cccnc4)cc3Cl)no2)c1)Nc1ccc(NC(=O)C2CC2)c(C(F)(F)F)c1 (2.5 µM)
inactive: MAPK1 = 0 | MAPK4 = 0 | MAPKAPK2 = 0 | MKNK1 = 0 | NTRK2 = 0 | NTRK3 = 0 | PAK4 = 0 | PBK 0 | PDGFRB 0 | PDK1 = 0

CC1(N)CCN(c2cccnc2NC(=O)c2nc(-c3ncccc3C(F)(F)F)cnc2N)CC1 [Darovasertib] (10 µM)
inactive: MAPK1 = 0 | MAPK4 = 0 | MAPKAPK2 = 0 | MKNK1 = 0 | NTRK2 = 0 | NTRK3 = 0 | PAK4 = 0 | PBK 0 | PDGFRB 0 | PDK1 = 0

Cc1nn(C)cc1-c1nc2c(N3CCN(Cc4ccc(Cl)cc4)CC3)c(Cl)cnc2[nH]1 (10 µM)
inactive: MAPK1 = 0 | MAPK4 = 0 | MAPKAPK2 = 0 | MKNK1 = 0 | NTRK2 = 0 | NTRK3 = 0 | PAK4 = 0 | PBK 0 | PDGFRB 0 | PDK1 = 0

CO[C@H]1C[C@@H]2CC[C@@H](C)[C@@](O)(O2)C(=O)C(=O)N2CCCC[C@H]2C(=O)O[C@H]([C@H](C)C[C@@H]2CC[C@@H](OC(=O)C(C)(CO)CO)[C@H](OC)C2)CC(=O)[C@H](C)/C=C(\C)[C@@H](O)[C@@H](OC)C(=O)[C@H](C)C[C@H](C)/C=C/C=C/C=C/1C [Temsirolimus] (2.5 µM)
inactive: MAPK1 = 0 | MAPK4 = 0 | MAPKAPK2 = 0 | MKNK1 = 0 | NTRK2 = 0 | NTRK3 = 0 | PAK4 = 0 | PBK 0 | PDGFRB 0 | PDK1 = 0

C=CC(=O)N1CCN(C(=O)CNc2cc(I)c(Cl)cc2O)CC1 [K-Ras(G12C) inhibitor 12] (10 µM)
inactive: MAPK1 = 0 | MAPK4 = 0 | MAPKAPK2 = 0 | MKNK1 = 0 | NTRK2 = 0 | NTRK3 = 0 | PAK4 = 0 | PBK 0 | PDGFRB 0 | PDK1 = 0

Oc1c(F)cc(-c2cnccc2-c2ccc(N3CCOCC3)cc2)cc1F (10 µM)
inactive: MAPK1 = 0 | MAPK4 = 0 | MAPKAPK2 = 0 | MKNK1 = 0 | NTRK2 = 0 | NTRK3 = 0 | PAK4 = 0 | PBK 0 | PDGFRB 0 | PDK1 = 0

CO[C@H]1C[C@@H]2CC[C@@H](C)[C@@](O)(O2)C(=O)C(=O)N2CCCC[C@H]2C(=O)O[C@H]([C@H](C)C[C@@H]2CC[C@@H](OCCO)[C@H](OC)C2)CC(=O)[C@H](C)/C=C(\C)[C@@H](O)[C@@H](OC)C(=O)[C@H](C)C[C@H](C)/C=C/C=C/C=C/1C [Everolimus] (10 µM)
inactive: MAPK1 = 0 | MAPK4 = 0 | MAPKAPK2 = 0 | MKNK1 = 0 | NTRK2 = 0 | NTRK3 = 0 | PAK4 = 0 | PBK 0 | PDGFRB 0 | PDK1 = 0

Cc1nc[nH]c1CN1CCN(C(=O)N[C@@H](CC(C)C)C(=O)O)[C@@H](Cc2ccccc2)C1=O (10 µM)
inactive: MAPK1 = 0 | MAPK4 = 0 | MAPKAPK2 = 0 | MKNK1 = 0 | NTRK2 = 0 | NTRK3 = 0 | PAK4 = 0 | PBK 0 | PDGFRB 0 | PDK1 = 0

CC(C)CCN1c2nc(Nc3cc(F)c(O)c(F)c3)ncc2N(C)C(=O)C1C (stereo not given) (2.5 µM)
inactive: MAPK1 = 0 | MAPK4 = 0 | MAPKAPK2 = 0 | MKNK1 = 0 | NTRK2 = 0 | NTRK3 = 0 | PAK4 = 0 | PBK 0 | PDGFRB 0 | PDK1 = 0

O=c1cc(N2CCOCC2)oc2c(-c3ccc4c(c3)OCCO4)csc12 (2.5 µM)
inactive: MAPK1 = 0 | MAPK4 = 0 | MAPKAPK2 = 0 | MKNK1 = 0 | NTRK2 = 0 | NTRK3 = 0 | PAK4 = 0 | PBK 0 | PDGFRB 0 | PDK1 = 0

C#Cc1cccc(Nc2ncnc3cc(OC)c(NC(=O)N4C[C@H]5CCN(C)[C@H]5C4)cc23)c1 [Theliatinib] (10 µM)
inactive: MAPK1 = 0 | MAPK4 = 0 | MAPKAPK2 = 0 | MKNK1 = 0 | NTRK2 = 0 | NTRK3 = 0 | PAK4 = 0 | PBK 0 | PDGFRB 0 | PDK1 = 0

COc1cc(N2CCOCC2)ccc1Nc1ncc(F)c(Nc2ccccc2NS(C)(=O)=O)n1 (10 µM)
inactive: MAPK1 = 0 | MAPK4 = 0 | MAPKAPK2 = 0 | MKNK1 = 0 | NTRK2 = 0 | NTRK3 = 0 | PAK4 = 0 | PBK 0 | PDGFRB 0 | PDK1 = 0

O=c1c2c([nH]n1-c1nc3ccccc3s1)CCCC2 (10 µM)
inactive: MAPK1 = 0 | MAPK4 = 0 | MAPKAPK2 = 0 | MKNK1 = 0 | NTRK2 = 0 | NTRK3 = 0 | PAK4 = 0 | PBK 0 | PDGFRB 0 | PDK1 = 0

COc1cc2ncnc(Oc3ccc(CC(=O)Nc4cnn(C(C)C)c4)cc3)c2cc1OC (10 µM)
inactive: MAPK1 = 0 | MAPK4 = 0 | MAPKAPK2 = 0 | MKNK1 = 0 | NTRK2 = 0 | NTRK3 = 0 | PAK4 = 0 | PBK 0 | PDGFRB 0 | PDK1 = 0

COc1ccc(S(=O)(=O)Nc2cc(-c3c(O)ccc4ccccc34)c(O)c3ccccc23)cc1 (10 µM)
inactive: MAPK1 = 0 | MAPK4 = 0 | MAPKAPK2 = 0 | MKNK1 = 0 | NTRK2 = 0 | NTRK3 = 0 | PAK4 = 0 | PBK 0 | PDGFRB 0 | PDK1 = 0

NC(=O)c1ccc(N(C(N)=O)c2c(F)cccc2F)nc1-c1ccc(F)cc1F (10 µM)
inactive: MAPK1 = 0 | MAPK4 = 0 | MAPKAPK2 = 0 | MKNK1 = 0 | NTRK2 = 0 | NTRK3 = 0 | PAK4 = 0 | PBK 0 | PDGFRB 0 | PDK1 = 0

c1nc2c(NC3CCCCC3)nc(Nc3ccc(N4CCOCC4)cc3)nc2[nH]1 [Reversine] (10 µM)
inactive: MAPK1 = 0 | MAPK4 = 0 | MAPKAPK2 = 0 | MKNK1 = 0 | NTRK2 = 0 | NTRK3 = 0 | PAK4 = 0 | PBK 0 | PDGFRB 0 | PDK1 = 0

N[C@@H]1CCCN(c2c(/C=C3\SC(=O)NC3=O)cccc2-c2ccccc2)C1 (10 µM)
inactive: MAPK1 = 0 | MAPK4 = 0 | MAPKAPK2 = 0 | MKNK1 = 0 | NTRK2 = 0 | NTRK3 = 0 | PAK4 = 0 | PBK 0 | PDGFRB 0 | PDK1 = 0

Not a retest: two of the compounds above.
c1nc2c(NC3CCCCC3)nc(Nc3ccc(N4CCOCC4)cc3)nc2[nH]1 [Reversine] (10 µM)
inactive: MAPK1 = 0 | MAPK4 = 0 | MAPKAPK2 = 0 | MKNK1 = 0 | NTRK2 = 0 | NTRK3 = 0 | PAK4 = 0 | PBK 0 | PDGFRB 0 | PDK1 = 0

N[C@@H]1CCCN(c2c(/C=C3\SC(=O)NC3=O)cccc2-c2ccccc2)C1 (10 µM)
inactive: MAPK1 = 0 | MAPK4 = 0 | MAPKAPK2 = 0 | MKNK1 = 0 | NTRK2 = 0 | NTRK3 = 0 | PAK4 = 0 | PBK 0 | PDGFRB 0 | PDK1 = 0

The list continues.

CCCn1/c(=N/C(=O)c2cccc(C(N)=O)c2)[nH]c2ccccc21 [Takinib] (10 µM)
inactive: MAPK1 = 0 | MAPK4 = 0 | MAPKAPK2 = 0 | MKNK1 = 0 | NTRK2 = 0 | NTRK3 = 0 | PAK4 = 0 | PBK 0 | PDGFRB 0 | PDK1 = 0

Nc1nc2c(nc(Br)n2[C@@H]2O[C@@H]3COP(=O)(O)O[C@H]3[C@H]2O)c(=O)[nH]1 [8-Bromo-cGMP (sodium)] (10 µM)
inactive: MAPK1 = 0 | MAPK4 = 0 | MAPKAPK2 = 0 | MKNK1 = 0 | NTRK2 = 0 | NTRK3 = 0 | PAK4 = 0 | PBK 0 | PDGFRB 0 | PDK1 = 0

Cn1c2cc([S+](C)[O-])sc2c2cnn(Cc3cccc(N)c3)c(=O)c21 (stereo not given) (2.5 µM)
inactive: MAPK1 = 0 | MAPK4 = 0 | MAPKAPK2 = 0 | MKNK1 = 0 | NTRK2 = 0 | NTRK3 = 0 | PAK4 = 0 | PBK 0 | PDGFRB 0 | PDK1 = 0

O=C1NC(=O)/C(=C\c2c[nH]c(=O)c(-c3ccc(N4CCNCC4)nc3)c2)S1 [Protein kinase inhibitors 1 hydrochloride] (10 µM)
inactive: MAPK1 = 0 | MAPK4 = 0 | MAPKAPK2 = 0 | MKNK1 = 0 | NTRK2 = 0 | NTRK3 = 0 | PAK4 = 0 | PBK 0 | PDGFRB 0 | PDK1 = 0

Nc1[nH]nc2nc(-c3ccc(NS(=O)(=O)c4cc(Cl)ccc4Cl)cc3)cnc12 (10 µM)
inactive: MAPK1 = 0 | MAPK4 = 0 | MAPKAPK2 = 0 | MKNK1 = 0 | NTRK2 = 0 | NTRK3 = 0 | PAK4 = 0 | PBK 0 | PDGFRB 0 | PDK1 = 0

C[C@@H]1O[C@@H](Oc2cc(O)c3c(=O)c(O[C@@H]4O[C@@H](C)[C@H](O)[C@@H](O)[C@H]4O)c(-c4ccc(O)cc4)oc3c2)[C@H](O)[C@H](O)[C@H]1O [Kaempferitrin] (10 µM)
inactive: MAPK1 = 0 | MAPK4 = 0 | MAPKAPK2 = 0 | MKNK1 = 0 | NTRK2 = 0 | NTRK3 = 0 | PAK4 = 0 | PBK 0 | PDGFRB 0 | PDK1 = 0

CC(O)(C#Cc1ccc2c(c1)N(c1nc(N)ncc1Cl)CC2)c1nccs1 (stereo not given) (2.5 µM)
inactive: MAPK1 = 0 | MAPK4 = 0 | MAPKAPK2 = 0 | MKNK1 = 0 | NTRK2 = 0 | NTRK3 = 0 | PAK4 = 0 | PBK 0 | PDGFRB 0 | PDK1 = 0
